Assay results: the supplement of paper PMC12067093, “Discovery and optimisation of a covalent ligand for TRIM25 and its application to targeted protein ubiquitination” (Chemical Science, 2025)
Some of the results follow.

Compound: CC1Cc2ccccc2N1C(=O)C1CCCN(C1)C(=O)CCl (mixture of isomers) [TRIM25 ligand 11 (diastereomer mixture)]
Test: probe-labelled cysteine peptide fold change vs DMSO (competition) (log2 fold change); higher = less target engagement (more negative = stronger competition)
Details: THP-1, incubation time: 4 h
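Note: competitive chemoproteomic profiling in live THP-1 cells with an iodoacetamide desthiobiotin (IA-DTB) probe, comparing probe-labelled peptide intensities in compound-treated cells against DMSO-treated controls.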

| Target | probe-labelled cysteine peptide fold change (10 µM) | probe-labelled cysteine peptide fold change (50 µM) |
| --- | --- | --- |
| PRDX4_Q13162_148_SINTEVVACSVDSQFTHLAWINTPR (UniProt Q13162) | 0.122 | -0.0189 |
| PRDX1_Q06830_71+83_LNCQVIGASVDSHFCHLAWVNTPK (UniProt Q06830) | 0.226 | 0.16 |
| PPM1B_O75688_172_NGQVCFSTQDHKPCNPR (UniProt O75688) | -0.0699 | -0.109 |
| PPP6R3_Q5H9R7_37_ELMDEEDVLQECK (UniProt Q5H9R7) | -0.0583 | -0.131 |
| PPP4C_P60510_235_GAGYLFGSDVVAQFNAANDIDMICR (UniProt P60510) | -0.278 | -0.148 |
| PREX1_Q8TCU6_120_DFLAALEYCLHPEPQSQHELGNVFLK (UniProt Q8TCU6) | 0.176 | 0.0217 |
| PPP1CB_P62140_201_RIMRPTDVPDTGLLCDLLWSDPDK (UniProt P62140) | 0.262 | 0.0628 |
| PPIP5K2_O43314_164_ECNLIEGEDHVEVNGEVFQK (UniProt O43314) | 0.141 | 0.18 |
| PPWD1_Q96BP3_512_LFPVECPK (UniProt Q96BP3) | 0.113 | -0.0164 |
| PPIL4_Q8WUA2_245_TQAILLEMVGDLPDADIKPPENVLFVCK (UniProt Q8WUA2) | 0.115 | 0.268 |
| PRDX3_P30048_229_AFQYVETHGEVCPANWTPDSPTIK (UniProt P30048) | 0.132 | 0.0626 |
| PPIL3_Q9H2H8_25+40_TCENFLALCASNYYNGCIFHR (UniProt Q9H2H8) | -0.332 | 0.0753 |
| PPIP5K2_O43314_729_IPDIYDCIK (UniProt O43314) | -0.0456 | -0.0148 |
| PPT1_P50897_128_CPSPPMINLISVGGQHQGVFGLPR (UniProt P50897) | -0.046 | -0.182 |
| PPP6R2_O75170_264_NMFDGDRTESCLVSGTQVLLTLLETR (UniProt O75170) | 0.128 | -0.117 |
| PRDX2_P32119_70_LGCEVLGVSVDSQFTHLAWINTPR (UniProt P32119) | 0.077 | 0.00587 |
| PPP1R9B_Q96SB3_270_CPAGQQPPQHR (UniProt Q96SB3) | -0.0542 | -0.0774 |
| PPP5C_P53041_77_TECYGYALGDATR (UniProt P53041) | 0.133 | 0.101 |
| PPM1A_P35813_72_YCCEHLLDHITNNQDFK (UniProt P35813) | 0.0578 | -0.154 |
| PPM1H_Q9ULR3_56_FPYGRPEFLGLSQDEVECSADHIARPILILK (UniProt Q9ULR3) | 0.0254 | -0.319 |
| PPP1R3G_B7ZBB8_76_EEAAPQEQEELLECR (UniProt B7ZBB8) | -0.149 | -0.199 |

Quoted from the listing:
In probe-labelled cysteine peptide fold change (10 µM), PPIP5K2_O43314_729_IPDIYDCIK (UniProt O43314) is entered as -0.0456
In probe-labelled cysteine peptide fold change (50 µM), PPP6R2_O75170_264_NMFDGDRTESCLVSGTQVLLTLLETR (UniProt O75170) is entered as -0.117

(listing goes on)

| Target | probe-labelled cysteine peptide fold change (10 µM) | probe-labelled cysteine peptide fold change (50 µM) |
| --- | --- | --- |
| PPP6R2_O75170_366_LMAALLHTNTPSINQELCR (UniProt O75170) | 0.377 | 0.281 |
| PPP1R8_Q12972_58+67_NPDLCDFTIDHQSCSR (UniProt Q12972) | 0.219 | -0.221 |
| PPP6R1_Q9UPN7_326_LSCFHQLLLEPPKLEPLQMTWGMLAPPLGNTR (UniProt Q9UPN7) | -0.00375 | -0.128 |
| PPP5C_P53041_208_CAYQILVQVK (UniProt P53041) | 0.302 | -0.0332 |
| PPP3CA_Q08209_228_FKEPPAYGPMCDILWSDPLEDFGNEK (UniProt Q08209) | 0.107 | 0.0161 |
| PRDX1_Q06830_83_LNCQVIGASVDSHFCHLAWVNTPK (UniProt Q06830) | 0.095 | 0.129 |
| PREP_P48147_343_VLVPEHEKDVLEWIACVR (UniProt P48147) | -0.434 | -0.0413 |
| PPP4R1_Q8TF05_663_QNWHCLR (UniProt Q8TF05) | 0.125 | 0.0913 |
| PPIP5K2_O43314_488_KVQLTYLPHGCPK (UniProt O43314) | -0.176 | -0.182 |
| PPP6R1_Q9UPN7_37_FDLHTSSHLDTLLEREDLSLPELLDEEDVLQECK (UniProt Q9UPN7) | 0.124 | -0.285 |
| PPP4R3B_Q5MIZ7_90_AGCDEIWEK (UniProt Q5MIZ7) | 0.219 | 0.316 |
| PPP6C_O00743_129_QITQVYGFYDECQTK (UniProt O00743) | 0.415 | 0.409 |
| PREP_P48147_410_DTEIFYQFTSFLSPGIIYHCDLTK (UniProt P48147) | 0.142 | 0.273 |
| PPWD1_Q96BP3_98_DVITHVVCTK (UniProt Q96BP3) | 0.131 | 0.214 |
| PPP1R10_Q96QC0_912_GHDGGHSHGGDMSNRPVCR (UniProt Q96QC0) | 0.052 | -0.201 |
| PPP1CB_P62140_61_ICGDIHGQYTDLLR (UniProt P62140) | 0.144 | 0.169 |
| PRDX2_P32119_172_LVQAFQYTDEHGEVCPAGWK (UniProt P32119) | 0.0996 | 0.154 |
| PPM1F_P49593_315_IEALGGFVSHMDCWR (UniProt P49593) | -0.0134 | 0.0407 |
| PRDX6_P30041_91_DINAYNCEEPTEKLPFPIIDDR (UniProt P30041) | -0.447 | -0.386 |
| PREPL_Q4J6C6_184_TEDSEASTCVIIK (UniProt Q4J6C6) | 0.108 | -0.0386 |
| PRDX2_P32119_172_LVQAFQYTDEHGEVCPAGWKPGSDTIK (UniProt P32119) | 0.192 | 0.128 |

Given as labelled records: entries from further up.
PPIP5K2_O43314_488_KVQLTYLPHGCPK (UniProt O43314)
  probe-labelled cysteine peptide fold change (10 µM) = -0.176
  probe-labelled cysteine peptide fold change (50 µM) = -0.182
PREP_P48147_410_DTEIFYQFTSFLSPGIIYHCDLTK (UniProt P48147)
  probe-labelled cysteine peptide fold change (10 µM) = 0.142
  probe-labelled cysteine peptide fold change (50 µM) = 0.273

The results go on.

| Target | probe-labelled cysteine peptide fold change (10 µM) | probe-labelled cysteine peptide fold change (50 µM) |
| --- | --- | --- |
| PPP2R2D_Q66LE6_245_SFNIVDIKPANMEELTEVITAAEFHPHQCNVFVYSSSK (UniProt Q66LE6) | -0.185 | -0.0846 |
| PPT1_P50897_46_ALQHLDPPAPLPLVIWHGMGDSCCNPLSMGAIK (UniProt P50897) | 0.0812 | -0.0671 |
| PPP4R2_Q9NY27_296_QHCTEEDEEEDEEEEEESFMTSR (UniProt Q9NY27) | -0.208 | -0.445 |
| PPP6R2_O75170_880_LLSPACPAPK (UniProt O75170) | 0.0945 | -0.19 |
| PPP1R9B_Q96SB3_732_LEGYWGEAQSLCQAVDEHLR (UniProt Q96SB3) | 0.347 | 0.254 |
| PPP5C_P53041_208_KCAYQILVQVK (UniProt P53041) | 0.045 | -0.16 |
| PRDX1_Q06830_83_KLNCQVIGASVDSHFCHLAWVNTPK (UniProt Q06830) | 0.127 | 0.0883 |
| PPP1R27_Q86WC6_105_DEAGWTPLHIACSDGYPDIAR (UniProt Q86WC6) | -0.0556 | 0.135 |
| PPP4R1_Q8TF05_645_HCAYSLPGVALTLGR (UniProt Q8TF05) | -0.0962 | 0.138 |
| PRDX2_P32119_70_KLGCEVLGVSVDSQFTHLAWINTPR (UniProt P32119) | 0.0786 | -0.0312 |
| PPP1R12C_Q9BZL4_211_CWLNGGAMPEAR (UniProt Q9BZL4) | -0.0694 | -0.182 |
| PRAG1_Q86YV5_221_LAAFAGTTSGCHQGPGPLR (UniProt Q86YV5) | 0.0608 | -0.333 |
| PPP2CA_P67775_20_ELDQWIEQLNECK (UniProt P67775) | -0.0442 | -0.2 |
| PPIP5K2_O43314_298_VCLAFK (UniProt O43314) | -0.12 | 0.219 |
| PPP4R1_Q8TF05_117_AELMEQVPHIALFCQENRPSIPYAFSK (UniProt Q8TF05) | -0.016 | 0.0192 |
| PREX1_Q8TCU6_1021_KPSLIGLDPEQGHLNPMSYTQHCITTMAAPSWK (UniProt Q8TCU6) | -0.183 | -0.357 |
| PPP4R2_Q9NY27_22_EVCPVLDQFLCHVAK (UniProt Q9NY27) | 0.165 | -0.00762 |
| PRC1_O43663_322_QAFAPFCAEDYTESLLQLHDAEIVR (UniProt O43663) | 0.305 | 0.0868 |
| PPP3R1_P63098_154_ISFEEFCAVVGGLDIHKK (UniProt P63098) | -0.0562 | -0.095 |
| PPP6C_O00743_192_GAFCDLVWSDPEDVDTWAISPR (UniProt O00743) | 0.0438 | -0.191 |
| PPP6R3_Q5H9R7_431_CQLIER (UniProt Q5H9R7) | 0.132 | 0.111 |

| Target | probe-labelled cysteine peptide fold change (10 µM) | probe-labelled cysteine peptide fold change (50 µM) |
| --- | --- | --- |
| PRDX4_Q13162_245_HGEVCPAGWKPGSETIIPDPAGK (UniProt Q13162) | -0.04 | -0.0318 |
| PPP3CB_P16298_477_ICSFEEAK (UniProt P16298) | -0.0332 | -0.105 |
| PREP_P48147_255_EGCDPVNR (UniProt P48147) | 0.0406 | 0.0173 |
| PPP1CC_P36873_245_FLHKHDLDLICR (UniProt P36873) | -0.544 | -0.301 |
| PPP6C_O00743_265_CGNIASIMVFK (UniProt O00743) | 0.0395 | 0.0584 |
| PRCP_P42785_394_ELSDDCFQQWGVRPR (UniProt P42785) | 0.151 | 0.151 |
| PPP4R2_Q9NY27_105_LCELLTDPR (UniProt Q9NY27) | 0.118 | 0.0827 |
| PPP1R27_Q86WC6_79_KVSLATIHPSGLAALHEAVLSGNLECVK (UniProt Q86WC6) | -0.118 | -0.273 |
| PRDM2_Q13029_875_ESHSVQPTCSAVK (UniProt Q13029) | -0.0111 | -0.128 |
| PPP1CC_P36873_202_IMRPTDVPDQGLLCDLLWSDPDK (UniProt P36873) | -0.00289 | -0.0601 |
| PPOX_P50336_418_NCIPQYTLGHWQK (UniProt P50336) | -0.186 | -0.0139 |
| PRC1_O43663_136_LLQEQDQELCEILCMPHYDIDSASVPSLEELNQFR (UniProt O43663) | -0.23 | -0.122 |
| PPP1R8_Q12972_16_AAAANSGSSLPLFDCPTWAGKPPPGLHLDVVK (UniProt Q12972) | 0.176 | 0.0528 |
| PPP1R18_Q6NYC8_611_ALIVDESCRR (UniProt Q6NYC8) | -0.0805 | -0.177 |
| PRDX2_P32119_70_LGCEVLGVSVDSQFTHLAWINTPRK (UniProt P32119) | -0.0824 | 0.00679 |
| PPM1E_Q8WY54_307_QEMFPHDPAEALCR (UniProt Q8WY54) | -0.16 | -0.337 |
| PPP2R5C_Q13362_270_SLSVYHPQLAYCVVQFLEK (UniProt Q13362) | 0.249 | -0.00227 |
| PPME1_Q9Y570_312_GLSNLFLSCPIPK (UniProt Q9Y570) | 0.0354 | 0.0309 |
